Patent US20090203577A1 (EXELIXIS, INC., priority 2005, published 2009)

The chains behind the UniProt entries cited, without tags or fusion partners. Residues count along the entry.
UniProt Q96RI1, 1-472 isoform 2: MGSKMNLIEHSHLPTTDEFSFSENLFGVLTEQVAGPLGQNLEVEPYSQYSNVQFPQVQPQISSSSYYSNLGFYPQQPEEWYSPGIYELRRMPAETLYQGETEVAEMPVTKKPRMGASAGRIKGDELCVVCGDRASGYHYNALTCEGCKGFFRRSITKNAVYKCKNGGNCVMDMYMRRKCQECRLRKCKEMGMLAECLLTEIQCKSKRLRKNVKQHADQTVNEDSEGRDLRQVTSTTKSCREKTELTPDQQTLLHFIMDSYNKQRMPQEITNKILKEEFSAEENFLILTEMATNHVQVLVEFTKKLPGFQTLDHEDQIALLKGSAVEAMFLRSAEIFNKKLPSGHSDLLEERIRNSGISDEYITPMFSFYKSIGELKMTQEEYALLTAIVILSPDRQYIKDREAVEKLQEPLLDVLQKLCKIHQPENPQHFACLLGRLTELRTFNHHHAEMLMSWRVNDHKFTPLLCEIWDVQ
UniProt P19793, whole entry partner: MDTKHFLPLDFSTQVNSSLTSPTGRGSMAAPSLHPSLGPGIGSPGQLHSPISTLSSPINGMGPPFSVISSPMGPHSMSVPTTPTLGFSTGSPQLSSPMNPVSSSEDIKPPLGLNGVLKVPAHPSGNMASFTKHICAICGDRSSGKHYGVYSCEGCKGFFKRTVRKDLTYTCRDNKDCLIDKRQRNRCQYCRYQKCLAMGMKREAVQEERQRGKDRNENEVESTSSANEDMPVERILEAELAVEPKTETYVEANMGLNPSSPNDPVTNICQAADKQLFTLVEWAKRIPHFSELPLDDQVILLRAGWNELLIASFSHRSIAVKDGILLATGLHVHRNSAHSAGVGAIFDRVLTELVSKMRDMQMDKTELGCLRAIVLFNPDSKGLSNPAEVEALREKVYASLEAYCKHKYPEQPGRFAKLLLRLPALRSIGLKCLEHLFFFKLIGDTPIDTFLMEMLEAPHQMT

Molecular target: human farnesoid X receptor (Homo sapiens, UniProt Q96RI1)
Assay: FXR in vitro assays (farnesoid X receptor/ECREx7 co-transfection assay, TR-FRET assay), Table I
Type: cell-based
Conditions: for EC50: read-out: EC50 μM, agonist activity, one or more of the in vitro assays; for % Efficacy: relative to maximum response of chenodeoxycholic acid (CDCA)

Row | EC50 [µM] | % Efficacy | Compound
1 | 0.1 to 1 | A (A=>100%) | CC(C)OC(=O)C1=CN(C(=O)c2ccc(F)c(CN3CCCCC3)c2)CC(C)(C)c2c1[nH]c1ccccc21
2 | 1 to 10 | D (D=40-60%) | CC1(C)CN(C(=O)c2ccc(F)c(F)c2)CC(C(=O)NCCC(=O)O)c2[nH]c3ccccc3c21 (centres unmarked)
3 | 0.1 to 1 | A (A=>100%) | CC(C)OC(=O)C1=CN(C(=O)c2cc(CN3CCCCC3)ccc2F)CC(C)(C)c2c1[nH]c1ccccc21
4 | 0.1 to 1 | A (A=>100%) | COc1ccc(COc2cc(C(=O)N3C=C(C(=O)OC(C)C)c4[nH]c5ccccc5c4C(C)(C)C3)cc(F)c2F)cc1

Structures were worked out from names or drawings and are uncertain.
